Laboratory results reported in PMC7577489.
Results are given in words; binding and its absence hold for the method and conditions named. In cells and extracts the contact can be indirect. Some entries that bind do so weakly or less than the wild type. Tags and fused reporters may be left off the sequences shown.

Sequences of proteins named here, by UniProt entry; tags and fusion partners are left off.
UniProt P06634: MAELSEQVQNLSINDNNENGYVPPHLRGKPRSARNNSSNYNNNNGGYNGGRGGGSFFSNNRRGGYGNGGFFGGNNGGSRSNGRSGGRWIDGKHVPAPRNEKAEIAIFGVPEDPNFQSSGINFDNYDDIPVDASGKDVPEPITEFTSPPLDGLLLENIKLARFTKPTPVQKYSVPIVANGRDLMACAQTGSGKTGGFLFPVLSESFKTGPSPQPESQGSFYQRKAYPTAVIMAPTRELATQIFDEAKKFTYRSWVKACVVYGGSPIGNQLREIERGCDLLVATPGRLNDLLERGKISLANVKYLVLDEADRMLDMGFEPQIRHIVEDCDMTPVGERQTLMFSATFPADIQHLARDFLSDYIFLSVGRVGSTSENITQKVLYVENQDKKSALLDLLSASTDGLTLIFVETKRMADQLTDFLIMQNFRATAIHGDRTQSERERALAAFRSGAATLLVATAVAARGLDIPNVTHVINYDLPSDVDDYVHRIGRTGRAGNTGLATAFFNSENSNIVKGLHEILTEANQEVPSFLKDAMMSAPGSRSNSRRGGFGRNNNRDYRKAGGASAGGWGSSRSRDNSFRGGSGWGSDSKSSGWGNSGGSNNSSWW

Target: T1, Flag-p33 replication protein (Tomato bushy stunt virus) (UniProt P15962)
T1 sequence: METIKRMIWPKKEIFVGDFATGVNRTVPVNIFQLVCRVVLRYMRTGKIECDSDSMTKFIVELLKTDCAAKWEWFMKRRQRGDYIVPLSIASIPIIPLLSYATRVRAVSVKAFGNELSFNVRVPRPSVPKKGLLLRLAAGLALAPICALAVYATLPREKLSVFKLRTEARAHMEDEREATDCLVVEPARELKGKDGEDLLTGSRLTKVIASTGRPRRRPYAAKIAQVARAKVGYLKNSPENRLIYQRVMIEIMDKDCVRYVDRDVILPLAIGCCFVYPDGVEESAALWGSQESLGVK
Experiment: co-IP; co-purification with Flag-p33 on anti-FLAG M2-agarose from detergent-solubilized (2% Triton X-100, high-salt TG buffer, 0.5 M NaCl) yeast membranes; His6-tagged proteins detected with anti-His antibody; with or without co-expressed RH20^ΔN, RH30^ΔN/ΔC or RH30

His6-Ded1 (yeast DDX3-like Ded1 helicase) (from UniProt P06634 1-604)
binding: binds
